# Reference: PubChem BioAssay AID192 (DTP/NCI, 2004)
# The list shows only some results of the screen, not a fair sample: it is rich in T/C values a quarter to a half above the control, in often repeated tests (any T/C) and in doses without a T/C. Further doses and runs are listed elsewhere. T/C: endpoint of the treated group in % of that of the vehicle group. Some entries give survivors of the animals treated and no T/C: the source files T/C as zero there, which appears to mark a toxic dose or a test without result, not a measured value. Some survivor counts are full or nearly so, which does not show that the dose was tolerated: survival well below the control is almost never listed, so the zero probably covers shortened survival too. Counts of survivors are from the toxicity check (mostly the fifth day) where no day follows; animals may have died later. Schedule codes are those of the source, taken here to give the interval after Q, in days (D) or hours (H), and the number of doses after X. For survival time, this PubChem deposit counts one and a half times the control or more as active, and values a quarter to a half above the control carry no call in these data; other NCI protocols may use other cut-offs.
# Tested on: BDF1 mice, B16 melanoma ip, median survival T/C
# Test: NCI In Vivo Anticancer Drug Screen. Data for tumor model B16 Melanoma (intraperitoneal) in B6D2F1 (BDF1) mice
# Conditions: T/C endpoint: median survival time, higher T/C = longer survival
# How it was run: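 Transplantable tumor model; survival or tumor size measured; reported as T/C, treated over vehicle control.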
# [1] = dose: 25.0 mg/kg/injection, schedule: Q01DX009 (ip), vehicle: Klucel (hydroxypropylcellulose) (HPC)
# [2] = dose: 100.0 mg/kg/injection, schedule: Q01DX009 (ip), vehicle: Klucel (hydroxypropylcellulose) (HPC)
# [3] = dose: 200.0 mg/kg/injection, schedule: Q01DX009 (ip), vehicle: saline
# [4] = dose: 400.0 mg/kg/injection, schedule: Q01DX009 (ip), vehicle: saline with Tween-80
# [5] = dose: 100.0 mg/kg/injection, schedule: Q01DX009 (ip), vehicle: saline with Tween-80
# [6] = dose: 200.0 mg/kg/injection, schedule: Q01DX009 (ip), vehicle: saline with Tween-80
smiles,measurement,setting,value
c1cc[c]([Pb]([S]c2nc3ccccc3[nH]2)([c]2ccccc2)[c]2ccccc2)cc1,survivor count,"dose: 3.0 mg/kg/injection, schedule: Q01DX009 (ip), vehicle: Klucel (hydroxypropylcellulose) (HPC)",10 of 10
same,survivor count,"dose: 6.0 mg/kg/injection, schedule: Q01DX009 (ip), vehicle: Klucel (hydroxypropylcellulose) (HPC)",10 of 10
same,survivor count,"dose: 12.0 mg/kg/injection, schedule: Q01DX009 (ip), vehicle: Klucel (hydroxypropylcellulose) (HPC)",8 of 10
CNC(=O)OCc1c(COC(=O)NC)c(C)n(-c2ccc(OC)cc2)c1C,T/C,"dose: 12.5 mg/kg/injection, schedule: Q01DX009 (ip), vehicle: Klucel (hydroxypropylcellulose) (HPC)",126 % of control
same,T/C,[1],129 % of control
same,T/C,"dose: 50.0 mg/kg/injection, schedule: Q01DX009 (ip), vehicle: Klucel (hydroxypropylcellulose) (HPC)",135 % of control
same,survivor count,[2],10 of 10
CC(C)NNC(=O)c1ccccc1N,survivor count,[1],10 of 10
CN(Cc1cnc2nc(N)nc(N)c2n1)c1ccc(C(=O)NC(CCC(=O)O)C(=O)O)cc1Br (configuration not stated),survivor count,"dose: 2.5 mg/kg/injection, schedule: Q01DX009 (ip), vehicle: other",9 of 10
same,survivor count,"dose: 5.0 mg/kg/injection, schedule: Q01DX009 (ip), vehicle: other",7 of 10
O=C1c2ccccc2C(=O)c2c(NCCNCCO)ccc(O)c21,T/C,"dose: 40.0 mg/kg/injection, schedule: Q01DX009 (ip), vehicle: suspension in saline",142 % of control
CN(Cc1cnc2nc(N)nc(N)c2n1)c1c(Cl)cc(C(=O)NC(CCC(=O)O)C(=O)O)cc1Br (configuration not stated),survivor count,"dose: 100.0 mg/kg/injection, schedule: Q01DX011 (ip), vehicle: saline",10 of 10
ClC1CCC[N-]C1.ClC1CCC[N-]C1.[Cl][Pt+2]([Cl])([Cl])[Cl] (configuration not stated),T/C,"dose: 12.5 mg/kg/injection, schedule: Q01DX009 (ip), vehicle: saline with Tween-80",130 % of control
CCC(=O)OC1(c2ccccc2)CCN(C)C1C (configuration not stated),survivor count,[3],1 of 10
same,survivor count,"dose: 400.0 mg/kg/injection, schedule: Q01DX009 (ip), vehicle: saline",0 of 10
CSc1sc2ccccc2[n+]1C,survivor count,[3],1 of 10
C[C@@H]1C[C@H]2[C@@H]3CCC4=CC(=O)C=C[C@]4(C)[C@@]3(F)[C@@H](O)C[C@]2(C)[C@@]1(O)C(=O)CO,survivor count,[2],10 of 10
OCC1OCCO1,survivor count,[4],10 of 10
COC1CC(CC2CCC(C)C(C(C)C(=O)O)O2)OC2(OC(C)(C3CCC(C)(C4OC(C5OC(O)(CO)C(C)CC5C)CC4C)O3)CC2C)C1C (configuration not stated),survivor count,"dose: 5.0 mg/kg/injection, schedule: Q01DX009 (ip), vehicle: Klucel (hydroxypropylcellulose) (HPC)",9 of 10
COc1cc([C@@H]2c3cc4c(cc3C[C@H]3COC(=O)[C@@H]32)OCO4)cc(OC)c1OC,survivor count,"dose: 20.0 mg/kg/injection, schedule: Q01DX009 (ip), vehicle: saline",10 of 10
same,survivor count,"dose: 40.0 mg/kg/injection, schedule: Q01DX009 (ip), vehicle: saline",8 of 10
Clc1ccc2c(c1)/C(=C/c1ccccc1Cl)c1cc(Cl)cc(Cl)c1-2,survivor count,"dose: 25.0 mg/kg/injection, schedule: Q01DX009 (ip), vehicle: saline with Tween-80",6 of 6
same,survivor count,"dose: 50.0 mg/kg/injection, schedule: Q01DX009 (ip), vehicle: saline with Tween-80",6 of 6
same,survivor count,[5],6 of 6
same,survivor count,[6],6 of 6
same,survivor count,[4],6 of 6
same,survivor count,"dose: 800.0 mg/kg/injection, schedule: Q01DX009 (ip), vehicle: saline with Tween-80",6 of 6
COc1ccc(Br)cc1/C=N\NS(=O)(=O)c1ccc(C)cc1,survivor count,[4],6 of 6
COC(=O)/C=C/NC(=O)c1ccccc1C(=O)OC,survivor count,"dose: 50.0 mg/kg/injection, schedule: Q04DX003 (ip), vehicle: Klucel (hydroxypropylcellulose) (HPC)",10 of 10
same,survivor count,[2],9 of 10
same,survivor count,"dose: 400.0 mg/kg/injection, schedule: Q01DX009 (ip), vehicle: Klucel (hydroxypropylcellulose) (HPC)",9 of 10
O=C(O)c1c(-c2ccccc2)[nH]c2cc(Cl)ccc2c1=O,survivor count,"dose: 100.0 mg/kg/injection, schedule: Q01DX005 (ip), vehicle: saline",5 of 10
same,survivor count,[5],9 of 10
same,survivor count,[6],0 of 10
same,survivor count,"dose: 400.0 mg/kg/injection, schedule: Q01DX005 (ip), vehicle: saline",0 of 10
same,survivor count,[4],1 of 10
same,survivor count,"dose: 400.0 mg/kg/injection, schedule: Q04DX003 (ip), vehicle: saline with Tween-80",7 of 10
